Results published in US20170045513A1, “METHODS OF DIAGNOSING CELIAC DISEASE USING IP-10” (ImmusanT, Inc., priority 2014, published 2017).

Columns and labels:
Format in all cases: cell-based, human
[1] = test system: gluten-reactive T cells; experiment: 96-well plate whole blood cytokine release, IFNγ by MAGPIX multiplex bead assay; settings: n = 8, rank of mean % max among 17 peptide preparations
[2] = test system: gluten-reactive T cells; experiment: 96-well plate whole blood cytokine release, IP-10 by MAGPIX multiplex bead assay; settings: n = 10, rank of mean % max among 17 peptide preparations
[3] = test system: gluten-reactive T cells; experiment: Overnight IFNγ ELISpot assay with fresh PBMC; settings: n = 5, rank of mean % max among 17 peptide preparations
Procedure: HLA-DQ2.5-positive celiac disease subjects on gluten-free diet were used in this study. Blood was collected immediately before and 6 days after commencing 3-day oral gluten challenge. Whole blood or PBMCs were incubated with pools or single peptides derived from gluten or recall antigens. IFNγ and IP-10 levels were measured in plasma from the whole blood that was incubated in 96-well plates with peptides or peptide pools. Plasma cytokine/chemokine levels were measured by MAGPIX® multiplex bead assay (IFNγ and IP-10) or by ELISA (IFNγ and IP-10), and PBMC separated from the same blood sample were incubated in overnight IFNγ ELISpot assays.
Overnight IFNγ ELISpot assays (Human IFN-γ ELISpotPRO kit, transparent, ALP; Mabtech AB, #3420-2APT-10) were performed using PBMC freshly separated from heparinized blood diluted 1:1 in PBS with 2% fetal bovine serum (Stemcell Technologies #07905; Vancouver, BC, V5Z 1B3, Canada) overlaid on density gradient medium (Ficoll-Paque™ PLUS; GE Healthcare Lice Sciences #:17-1440-02) in SepMate™-50 tubes (Stemcell Technologies #15460). PBMC (8 million/mL) were resuspended in serum-free medium with gentamicin and phenol red (X-VIVO™15; Lonza, Walkersville Mass. 21793). PBMC (0.4 million/50 pt/well) and incubated with 50 μL 80% X-vivo15, 0.2% DMSO and 20% PBS in three triplicate wells (“medium only”), or with 50 μL PHA-L 20 μg/ml or peptide at 2× final concentration in 80% X-vivo15, 0.2% DMSO and 20% PBS. Peptide solutions to be added to individual ELISpot wells were prepared in 96-well U-bottom plates (60 pt/well) that were then sealed with adhesive ELISA plate cover slips before replacing the plastic lid and being frozen at −80° C. 96-well plates containing peptide solutions were thawed at room temperature for 10 min while being centrifuged at 300 g immediately prior to being added to ELISpot wells. Peptide pools and mitogen were assessed in triplicate wells, and individual peptides were assessed in duplicate wells. X-VIVO™15 (50 μL) was incubated with 80% X-vivo15, 0.2% DMSO and 20% PBS (50 μL) in triplicate wells (“no PBMC” control). A Zeiss automated ELISpot counter was used to determine spot forming units (SFU) per well (Zellnet Inc., Fort Lee, N J 07024). Laboratory staff were unaware of the arrangement of peptide solutions in ELISpot wells during assay setup and plate counting.

Substance	IFNγ WB MAGPIX (rank) [1]	IP-10 WB MAGPIX (rank) [2]	IFNγ ELISpot (rank) [3]	IFNγ WB MAGPIX (rank) ([1]; listed as Peptide 2*)	IP-10 WB MAGPIX (rank) ([2]; listed as Peptide 2*)	IFNγ ELISpot (rank) ([3]; listed as Peptide 2*)
(pE)QPPFSEQEQPVLPQ-amide (N-terminal pyroglutamate; C-terminal amide) [Peptide 13]	13	13	16			
[pGlu]GQQGYYPTSPQQSG-NH2 [Peptide 10]	14	15	12			
[pGlu]LQPFPQPELPYPQPQ-NH2 [Peptide 1]	3	3	10			
[pGlu]PEQPEQPFPEQPQQ-NH2 [Peptide 11]	17	16	14			
[pGlu]PEQPFPEQPIPEQPQPYP-NH2 [Peptide 14]	1	1	1			
[pGlu]PEQPIPEQPQPYPQQ-NH2 [Peptide 3]	2	2	2			
[pGlu]PQPYPEQPQPFPQQ-NH2 [Peptide 8]	8	8	3			
[pGlu]QPFPEQPEQIIPQQP-NH2 [Peptide 12]	16	14	15			
[pGlu]QPFPQPELPYPYPQ-NH2 [Peptide 16]	4	7	5			
[pGlu]QPFPQPEQPFPLQPEQP-NH2 [Peptide 6]	5	6	8			
[pGlu]QPFPQPEQPFPWQP-NH2 [Peptide 2, two preparations tested separately: CSBio (5 μM) and Pepscan re-synthesis (10 μg/mL)]	9	5	9	6	4	4
[pGlu]QPFPQPEQPFSQQ-NH2 [Peptide 7]	12	12 (12)	13			
[pGlu]QPFPQPEQPIPVQPEQS-NH2 [Peptide 4]	10	9	6			
[pGlu]QPFPQPEQPTPIQPEQP-NH2 [Peptide 5]	11 (11)	11	7			
[pGlu]QPYPQPELPYPQPQ-NH2 [Peptide 15]	7	10	11			
[pGlu]SGEGSFQPSQENPQ-NH2 [Peptide 9]	15	17	17			

Non-standard residues stand in square brackets, D forms with d. pGlu = O=C1CC[C@@H](C(=O)O)N1
